Key:
[1] = Charge/discharge cycle of BQ/hydrogen redox flow battery at different flow rates; conditions: […] BQ in 1 M H2SO4, 60 mA/cm2, hydrogen 100 mL/min
[2] = Charge/discharge cycling and polarization of BQDS/hydrogen RFC
[3] = 200 charge/discharge cycles at 100 mA cm^−2, […] BQDS in 1 M H2SO4

SMILES: O=C1C=C(S(=O)(=O)O)C=C(S(=O)(=O)O)C1=O [BQ]
- Capacity Utilisation ([1]; BQ flow rate 30 mL/min): 58%
- Capacity Utilisation ([1]; BQ flow rate 50 mL/min): 68%
- Capacity Utilisation ([1]; BQ flow rate 100 mL/min): 56%

SMILES: O=S(=O)([O-])c1cc(O)c(O)c(S(=O)(=O)[O-])c1.[Na+].[Na+] [BQDS, 4,5-Dihydroxy-1,3-benzenedisulfonic acid disodium salt monohydrate]
- average current efficiency [2, 3]: 95%
- average energy efficiency [2, 3]: 61%
- energy efficiency ([2]; at 100 mA cm^−2, single charge/discharge cycle): 67%
- maximum charge capacity ([2]; cycling at 100 mA cm^−2): 13.98 Ah L^−1
- maximum energy density ([2]; cycling at 100 mA cm^−2): 10.90 Wh L^−1
